According to the supplement of paper PMC10849652:
The other results are listed elsewhere or left out.

Sequences of proteins named here, by UniProt entry; tags and fusion partners are left off. A change or cut given only in a name is not applied to a line headed by its entry.
UniProt Q8N511: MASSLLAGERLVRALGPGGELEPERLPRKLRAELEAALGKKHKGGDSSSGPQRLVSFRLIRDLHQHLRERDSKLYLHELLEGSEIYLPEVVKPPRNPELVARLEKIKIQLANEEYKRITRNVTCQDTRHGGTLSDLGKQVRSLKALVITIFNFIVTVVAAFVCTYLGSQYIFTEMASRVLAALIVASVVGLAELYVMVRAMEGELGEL
UniProt P42166: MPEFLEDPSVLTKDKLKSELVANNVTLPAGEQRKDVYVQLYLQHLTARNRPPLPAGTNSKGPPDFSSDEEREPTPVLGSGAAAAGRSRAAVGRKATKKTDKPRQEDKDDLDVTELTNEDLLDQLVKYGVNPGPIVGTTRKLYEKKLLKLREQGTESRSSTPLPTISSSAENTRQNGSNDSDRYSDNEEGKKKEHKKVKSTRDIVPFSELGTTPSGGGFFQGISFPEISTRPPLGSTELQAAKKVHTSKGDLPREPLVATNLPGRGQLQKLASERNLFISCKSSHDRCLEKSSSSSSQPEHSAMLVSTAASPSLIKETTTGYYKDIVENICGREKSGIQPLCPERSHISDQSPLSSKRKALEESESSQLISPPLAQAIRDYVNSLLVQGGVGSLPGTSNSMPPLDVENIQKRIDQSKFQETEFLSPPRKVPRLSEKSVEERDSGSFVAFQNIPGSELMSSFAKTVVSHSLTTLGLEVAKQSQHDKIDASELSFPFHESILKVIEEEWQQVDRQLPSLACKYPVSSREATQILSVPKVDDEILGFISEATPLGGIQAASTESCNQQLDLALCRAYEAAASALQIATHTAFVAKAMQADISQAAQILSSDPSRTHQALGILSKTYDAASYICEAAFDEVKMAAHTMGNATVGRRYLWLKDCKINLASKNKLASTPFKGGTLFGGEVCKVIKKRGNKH
UniProt Q9NWH2: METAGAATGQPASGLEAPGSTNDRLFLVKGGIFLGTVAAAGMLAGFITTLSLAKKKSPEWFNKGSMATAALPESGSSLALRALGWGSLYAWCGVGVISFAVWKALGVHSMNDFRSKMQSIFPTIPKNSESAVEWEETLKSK
UniProt O75674: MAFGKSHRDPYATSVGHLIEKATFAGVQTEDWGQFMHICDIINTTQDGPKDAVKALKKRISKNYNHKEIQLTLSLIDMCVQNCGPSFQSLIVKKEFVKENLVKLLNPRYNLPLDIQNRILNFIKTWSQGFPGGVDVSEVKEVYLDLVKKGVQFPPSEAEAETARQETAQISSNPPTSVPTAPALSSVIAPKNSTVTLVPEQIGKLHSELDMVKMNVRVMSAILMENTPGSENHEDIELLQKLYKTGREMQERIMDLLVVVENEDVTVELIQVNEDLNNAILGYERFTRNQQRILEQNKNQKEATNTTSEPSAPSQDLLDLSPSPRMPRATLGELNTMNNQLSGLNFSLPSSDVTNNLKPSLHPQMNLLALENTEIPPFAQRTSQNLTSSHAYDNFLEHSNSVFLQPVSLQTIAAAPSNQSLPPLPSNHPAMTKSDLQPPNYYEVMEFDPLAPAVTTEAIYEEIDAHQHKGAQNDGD
UniProt Q9P0T7: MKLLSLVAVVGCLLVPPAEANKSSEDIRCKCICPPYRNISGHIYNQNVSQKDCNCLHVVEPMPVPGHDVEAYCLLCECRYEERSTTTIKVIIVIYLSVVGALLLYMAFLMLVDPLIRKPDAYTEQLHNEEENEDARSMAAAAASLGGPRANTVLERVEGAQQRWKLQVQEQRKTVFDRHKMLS
UniProt Q8N9V7: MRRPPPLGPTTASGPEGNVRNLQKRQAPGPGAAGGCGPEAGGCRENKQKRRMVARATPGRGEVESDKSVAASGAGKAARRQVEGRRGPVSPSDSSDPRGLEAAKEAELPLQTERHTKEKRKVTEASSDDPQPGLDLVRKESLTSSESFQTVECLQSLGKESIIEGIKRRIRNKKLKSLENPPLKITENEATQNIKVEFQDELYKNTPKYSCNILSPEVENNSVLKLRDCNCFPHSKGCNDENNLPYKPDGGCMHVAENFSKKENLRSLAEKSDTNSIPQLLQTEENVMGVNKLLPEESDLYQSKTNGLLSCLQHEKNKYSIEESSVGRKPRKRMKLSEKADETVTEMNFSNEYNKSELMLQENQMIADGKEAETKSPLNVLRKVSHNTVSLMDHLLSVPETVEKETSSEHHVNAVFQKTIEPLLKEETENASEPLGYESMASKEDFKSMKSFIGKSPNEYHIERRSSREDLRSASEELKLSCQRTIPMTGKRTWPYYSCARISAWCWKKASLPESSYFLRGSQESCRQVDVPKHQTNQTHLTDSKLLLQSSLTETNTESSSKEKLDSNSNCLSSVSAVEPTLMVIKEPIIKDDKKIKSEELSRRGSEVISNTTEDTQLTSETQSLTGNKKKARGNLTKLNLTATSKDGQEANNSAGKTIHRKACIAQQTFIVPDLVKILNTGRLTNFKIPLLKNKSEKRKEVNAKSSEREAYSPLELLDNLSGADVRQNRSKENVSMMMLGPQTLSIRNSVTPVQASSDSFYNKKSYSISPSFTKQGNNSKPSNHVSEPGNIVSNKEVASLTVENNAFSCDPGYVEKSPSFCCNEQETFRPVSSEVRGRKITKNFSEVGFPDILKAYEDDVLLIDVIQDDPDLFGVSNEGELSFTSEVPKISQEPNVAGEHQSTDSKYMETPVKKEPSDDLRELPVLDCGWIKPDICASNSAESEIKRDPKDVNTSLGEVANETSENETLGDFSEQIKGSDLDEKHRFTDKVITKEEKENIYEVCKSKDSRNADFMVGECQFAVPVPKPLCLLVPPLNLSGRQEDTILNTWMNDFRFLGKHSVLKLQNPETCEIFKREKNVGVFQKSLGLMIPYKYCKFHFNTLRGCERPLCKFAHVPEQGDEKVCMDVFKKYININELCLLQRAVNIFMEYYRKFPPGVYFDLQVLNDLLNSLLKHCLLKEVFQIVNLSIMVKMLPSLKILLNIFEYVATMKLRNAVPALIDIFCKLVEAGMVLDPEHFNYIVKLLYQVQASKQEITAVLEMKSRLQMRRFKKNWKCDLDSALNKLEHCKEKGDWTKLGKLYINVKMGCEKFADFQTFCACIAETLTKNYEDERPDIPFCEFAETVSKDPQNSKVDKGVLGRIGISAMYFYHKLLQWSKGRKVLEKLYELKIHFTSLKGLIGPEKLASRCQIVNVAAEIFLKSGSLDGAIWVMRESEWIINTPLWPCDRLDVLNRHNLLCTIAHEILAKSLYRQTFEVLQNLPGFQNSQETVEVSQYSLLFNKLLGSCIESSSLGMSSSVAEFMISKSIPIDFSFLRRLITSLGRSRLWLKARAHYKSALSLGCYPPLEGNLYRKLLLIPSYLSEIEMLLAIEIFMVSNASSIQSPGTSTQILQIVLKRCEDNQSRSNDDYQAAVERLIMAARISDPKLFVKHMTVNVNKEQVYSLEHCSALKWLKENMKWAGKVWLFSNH
UniProt Q96Q45: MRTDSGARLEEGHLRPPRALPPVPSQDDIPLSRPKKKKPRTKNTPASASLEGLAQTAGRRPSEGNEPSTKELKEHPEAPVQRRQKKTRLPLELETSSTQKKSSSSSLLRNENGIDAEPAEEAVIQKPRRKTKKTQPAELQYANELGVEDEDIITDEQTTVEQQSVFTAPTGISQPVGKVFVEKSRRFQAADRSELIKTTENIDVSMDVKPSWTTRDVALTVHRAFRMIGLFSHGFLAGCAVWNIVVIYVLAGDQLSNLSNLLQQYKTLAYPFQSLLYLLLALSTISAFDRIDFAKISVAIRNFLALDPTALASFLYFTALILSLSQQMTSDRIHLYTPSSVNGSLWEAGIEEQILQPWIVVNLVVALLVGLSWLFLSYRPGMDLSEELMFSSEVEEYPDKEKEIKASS
UniProt Q9HCN3: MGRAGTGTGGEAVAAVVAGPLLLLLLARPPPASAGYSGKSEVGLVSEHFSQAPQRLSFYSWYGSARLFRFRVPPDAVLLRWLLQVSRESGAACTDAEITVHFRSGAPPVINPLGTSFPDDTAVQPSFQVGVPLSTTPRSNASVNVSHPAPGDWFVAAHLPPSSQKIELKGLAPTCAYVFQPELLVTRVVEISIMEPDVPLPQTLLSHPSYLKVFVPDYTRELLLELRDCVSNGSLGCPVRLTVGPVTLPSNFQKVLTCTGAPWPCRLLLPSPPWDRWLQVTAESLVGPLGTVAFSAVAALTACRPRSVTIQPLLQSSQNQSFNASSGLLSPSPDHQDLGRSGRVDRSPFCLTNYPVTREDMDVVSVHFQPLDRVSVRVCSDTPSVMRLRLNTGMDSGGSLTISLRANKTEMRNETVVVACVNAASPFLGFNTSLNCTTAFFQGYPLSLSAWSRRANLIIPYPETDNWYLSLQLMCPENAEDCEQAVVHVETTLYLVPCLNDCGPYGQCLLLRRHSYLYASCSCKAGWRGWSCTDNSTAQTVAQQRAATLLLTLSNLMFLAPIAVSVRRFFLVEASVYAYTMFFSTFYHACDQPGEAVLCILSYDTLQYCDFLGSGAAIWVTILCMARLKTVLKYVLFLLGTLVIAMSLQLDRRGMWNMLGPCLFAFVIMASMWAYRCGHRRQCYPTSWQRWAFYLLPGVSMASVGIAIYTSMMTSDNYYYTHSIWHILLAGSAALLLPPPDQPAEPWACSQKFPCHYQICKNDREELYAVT
UniProt Q8NDV7: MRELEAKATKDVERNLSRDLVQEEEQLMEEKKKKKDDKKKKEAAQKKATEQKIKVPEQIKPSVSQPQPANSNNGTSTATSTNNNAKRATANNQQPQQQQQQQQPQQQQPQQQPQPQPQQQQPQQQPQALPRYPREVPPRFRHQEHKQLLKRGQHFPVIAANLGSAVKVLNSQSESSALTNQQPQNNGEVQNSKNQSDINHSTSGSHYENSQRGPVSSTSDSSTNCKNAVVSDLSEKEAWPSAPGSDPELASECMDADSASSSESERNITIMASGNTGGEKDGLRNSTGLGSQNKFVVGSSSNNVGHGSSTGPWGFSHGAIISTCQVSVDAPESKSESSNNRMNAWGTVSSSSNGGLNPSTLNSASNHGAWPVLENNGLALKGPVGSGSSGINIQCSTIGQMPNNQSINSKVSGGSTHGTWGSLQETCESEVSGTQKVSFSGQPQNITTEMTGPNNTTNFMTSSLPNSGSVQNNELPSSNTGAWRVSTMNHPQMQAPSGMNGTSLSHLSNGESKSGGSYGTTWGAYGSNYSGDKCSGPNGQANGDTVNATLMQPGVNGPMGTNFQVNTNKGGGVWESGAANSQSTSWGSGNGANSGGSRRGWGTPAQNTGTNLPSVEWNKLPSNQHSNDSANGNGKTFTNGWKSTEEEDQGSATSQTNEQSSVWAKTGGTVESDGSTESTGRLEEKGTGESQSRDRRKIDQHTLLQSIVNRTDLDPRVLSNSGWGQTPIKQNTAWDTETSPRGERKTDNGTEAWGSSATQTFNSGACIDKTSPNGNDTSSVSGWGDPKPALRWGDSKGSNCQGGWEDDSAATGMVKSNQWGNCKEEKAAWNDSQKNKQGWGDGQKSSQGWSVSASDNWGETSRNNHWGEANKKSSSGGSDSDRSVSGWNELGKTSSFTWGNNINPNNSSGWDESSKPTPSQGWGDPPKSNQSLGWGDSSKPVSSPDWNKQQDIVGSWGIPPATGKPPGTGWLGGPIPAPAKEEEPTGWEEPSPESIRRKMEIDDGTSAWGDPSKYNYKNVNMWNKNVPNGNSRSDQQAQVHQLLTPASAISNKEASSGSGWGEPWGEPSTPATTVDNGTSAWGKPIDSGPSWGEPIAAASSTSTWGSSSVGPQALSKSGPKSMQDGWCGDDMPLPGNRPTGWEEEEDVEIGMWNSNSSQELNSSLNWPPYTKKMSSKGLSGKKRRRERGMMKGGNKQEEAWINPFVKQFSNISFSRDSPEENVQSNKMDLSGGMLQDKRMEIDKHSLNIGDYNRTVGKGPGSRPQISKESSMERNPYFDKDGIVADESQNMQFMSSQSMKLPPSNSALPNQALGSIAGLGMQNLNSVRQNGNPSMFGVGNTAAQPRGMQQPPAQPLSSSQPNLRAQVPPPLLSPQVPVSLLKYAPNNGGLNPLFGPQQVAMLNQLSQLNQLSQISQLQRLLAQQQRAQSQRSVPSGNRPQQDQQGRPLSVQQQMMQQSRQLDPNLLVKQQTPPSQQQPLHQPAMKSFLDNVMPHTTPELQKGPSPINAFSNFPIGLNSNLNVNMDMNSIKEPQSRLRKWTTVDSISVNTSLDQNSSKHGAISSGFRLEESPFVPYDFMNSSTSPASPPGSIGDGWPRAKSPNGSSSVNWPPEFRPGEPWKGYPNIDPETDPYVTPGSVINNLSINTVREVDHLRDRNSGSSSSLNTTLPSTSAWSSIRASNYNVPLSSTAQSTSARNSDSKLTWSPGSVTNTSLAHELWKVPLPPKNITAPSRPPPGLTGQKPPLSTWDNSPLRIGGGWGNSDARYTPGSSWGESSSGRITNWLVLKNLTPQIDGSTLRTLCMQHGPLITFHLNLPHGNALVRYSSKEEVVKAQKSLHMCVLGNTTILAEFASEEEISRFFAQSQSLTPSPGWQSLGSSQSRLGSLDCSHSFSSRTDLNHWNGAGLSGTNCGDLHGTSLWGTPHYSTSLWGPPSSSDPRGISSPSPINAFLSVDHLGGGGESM

Assays:
Assay in all cases: log2 fold change, soluble protein after heating vs DMSO (PISA); higher = thermal stabilisation; K562 lysate, 10 uM; active = over 0.2 and 3.5 SD of the protein, either way, in both replicates (recomputed)
[1] = compound: CCCS(=O)(=O)Nc1ccc(F)c(C(=O)c2c[nH]c3ncc(-c4ccc(Cl)cc4)cc23)c1F [vemurafenib]
How it was run: (§1)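 Quantification was by TMTpro 16plex LC-MS/MS with equalised channel sums, applied to the supernatant after 21,000xg for 90 min. Samples were crude K562 extract at 1 mg/mL protein in PBS pH 7.4 with 1 mM MgCl2, treated with 10 μM compound for 30 min, heated for 3 min across 48°C-58°C, pooled and brought to 0.5% NP-40 at 4°C. Values are log-two fold changes in thermal stability relative to solvent controls, from duplicates.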

[2] = compound: CCCS(=O)(=O)Nc1ccc(F)c(C(=O)c2c[nH]c3ncc(Cl)cc23)c1F
How it was run: as §1

[3] = compound: CCN(CCCOc1ccc2c(Nc3cc(CC(=O)Nc4cccc(F)c4)[nH]n3)ncnc2c1)CCOP(=O)(O)O [barasertib]
How it was run: as §1

[4] = compound: CC[C@@H]1C(=O)N(C)c2cnc(Nc3ccc(C(=O)NC4CCN(C)CC4)cc3OC)nc2N1C1CCCC1
How it was run: as §1

[5] = compound: CC[C@@H]1C(=O)N(C)c2cnc(Nc3ccc(C(=O)N[C@H]4CC[C@H](N5CCN(CC6CC6)CC5)CC4)cc3OC)nc2N1C(C)C [volasertib]
How it was run: as §1

[6] = compound: CCn1c(C(=O)N(C2CC2)C2CC2)cc2c3c(ncn3C)c(Nc3cc(C)n(C)n3)nc21
How it was run: as §1

[7] = compound: CCn1cc(-c2ccnc3[nH]c(-c4cccc(CN(C)C)c4)cc23)c(-c2ccc(NC(=O)N(C)C)cc2)n1
How it was run: as §1

[8] = compound: CN1CCC(CNc2ccc3ncc(-c4cccc(OC(F)(F)F)c4)n3n2)CC1
How it was run: as §1

[9] = compound: CN1CCN(CCOc2cc(OC3CCOCC3)c3c(Nc4c(Cl)ccc5c4OCO5)ncnc3c2)CC1 [saracatinib]
How it was run: as §1

[10] = compound: CN1CCN(c2nc(C3=C(c4c[nH]c5ccccc45)C(=O)NC3=O)c3ccccc3n2)CC1 [sotrastaurin]
How it was run: as §1

[11] = compound: CN1CC[C@H](c2c(O)cc(O)c3c(=O)cc(-c4ccccc4Cl)oc23)[C@H](O)C1 [alvocidib]
How it was run: as §1

[12] = compound: CN1CCc2c(c3ccccc3n2Cc2ccc(C(=O)NO)cc2)C1 [Tubastatin A]
How it was run: as §1

[13] = compound: CNC(=O)C1=CC=CC=C1NC2=NC(=NC=C2Cl)NC3=C(C=C(C=C3)N4CCOCC4)OC
How it was run: as §1

[14] = compound: CNC(=O)c1ccc(Nc2ncc(C(F)(F)F)c(NCc3nccnc3N(C)S(C)(=O)=O)n2)cc1 [defactinib]
How it was run: as §1

[15] = compound: CNc1nc(-c2ccc3c(N)n[nH]c3c2)cc(N2C[C@@H](C(=O)NC3CCCCC3)CC[C@H]2C)n1
How it was run: as §1

[16] = compound: COC(=O)N[C@@H](C)CNc1nccc(-c2cn(C(C)C)nc2-c2cc(Cl)cc(NS(C)(=O)=O)c2F)n1 [encorafenib]
How it was run: as §1

[17] = compound: COC(=O)[C@H](CCSC)NC(=O)C1=C(C=C(C=C1)NC[C@H](CS)N)C2=CC=CC=C2
How it was run: as §1

[18] = compound: COc1cc(Nc2ncc3c(n2)-c2ccc(Cl)cc2C(c2c(F)cccc2OC)=NC3)ccc1C(=O)O [alisertib]
How it was run: as §1

[19] = compound: COc1cc2nc(-c3cc(F)ccc3O)nc(N[C@@H]3CNC[C@H]3C(C)(C)O)c2cc1OC
How it was run: as §1

[20] = compound: COc1cc2ncnc(Nc3ccc(F)c(Cl)c3)c2cc1OCCCN1CCOCC1 [gefitinib]
How it was run: as §1

Measured: log2 fold change

TRABD (UniProt Q9H4I3)
inactive: [1] 0.144 | [2] -0.023 | [3] -0.031 | [4] 0.085 | [5] 0.034 | [6] -0.055 | [7] -0.071 | [8] 0.08 | [9] -0.043 | [10] -0.005 | [11] -0.047 | [12] 0.096 | [13] 0.052 | [14] -0.026 | [15] 0.088 | [16] -0.022 | [17] 0.038 | [18] 0.011 | [19] -0.043 | [20] 0.046

TMEM30A (UniProt Q9NV96)
inactive: [1] 0.002 | [2] -0.016 | [3] -0.004 | [4] 0.067 | [5] 0.027 | [6] 0.004 | [7] 0.08 | [8] 0.005 | [9] -0.024 | [10] 0.01 | [11] 0.004 | [12] -0.018 | [13] 0 | [14] 0.045 | [15] 0.152 | [16] 0.012 | [17] -0.036 | [18] 0.08 | [19] 0.011 | [20] 0

TMEM199 (UniProt Q8N511)
inactive: [1] 0 | [2] 0.026 | [3] 0.009 | [4] 0.023 | [5] 0 | [6] -0.003 | [7] -0.06 | [8] 0.054 | [9] 0.048 | [10] 0.035 | [11] -0.032 | [12] 0.097 | [13] -0.035 | [14] -0.023 | [15] -0.001 | [16] -0.011 | [17] -0.093 | [18] 0 | [19] -0.007 | [20] 0.001

TMPO (UniProt P42166)
inactive: [1] 0.027 | [2] -0.004 | [3] 0.04 | [4] -0.041 | [5] -0.025 | [6] 0.033 | [7] 0.026 | [8] 0.003 | [9] -0.017 | [10] -0.161 | [11] -0.196 | [12] -0.145 | [13] 0.002 | [14] 0.028 | [15] -0.003 | [16] 0.011 | [17] 0.174 | [18] -0.024 | [19] 0.012 | [20] 0.011

Fetched one by one from the entries so far (2):
TMPO (UniProt P42166)
inactive: [1] 0.027 | [2] -0.004 | [3] 0.04 | [4] -0.041 | [5] -0.025 | [6] 0.033 | [7] 0.026 | [8] 0.003 | [9] -0.017 | [10] -0.161 | [11] -0.196 | [12] -0.145 | [13] 0.002 | [14] 0.028 | [15] -0.003 | [16] 0.011 | [17] 0.174 | [18] -0.024 | [19] 0.012 | [20] 0.011

TMEM199 (UniProt Q8N511)
inactive: [1] 0 | [2] 0.026 | [3] 0.009 | [4] 0.023 | [5] 0 | [6] -0.003 | [7] -0.06 | [8] 0.054 | [9] 0.048 | [10] 0.035 | [11] -0.032 | [12] 0.097 | [13] -0.035 | [14] -0.023 | [15] -0.001 | [16] -0.011 | [17] -0.093 | [18] 0 | [19] -0.007 | [20] 0.001

Next part

TMEM230 isoform 2 (UniProt Q96A57)
inactive: [1] -0.011 | [2] 0.011 | [3] 0.091 | [4] 0.115 | [5] 0.079 | [6] 0.115 | [7] -0.012 | [8] 0.023 | [9] 0.033 | [10] 0.073 | [11] -0.051 | [12] 0.043 | [13] 0.026 | [14] -0.054 | [15] 0.049 | [16] 0.06 | [17] -0.051 | [19] 0.018

TNKS1BP1 (UniProt Q9C0C2)
inactive: [1] 0.047 | [2] 0.01 | [3] -0.05 | [4] 0.089 | [5] 0.012 | [6] 0 | [7] 0.002 | [8] 0.019 | [9] 0.016 | [10] 0.007 | [11] -0.037 | [12] 0.018 | [13] 0.001 | [14] -0.003 | [15] -0.003 | [16] 0.034 | [17] -0.044 | [18] -0.008 | [19] 0.012 | [20] -0.015

TMEM242 (UniProt Q9NWH2)
inactive: [1] -0.208 | [3] 0.017 | [4] -0.005 | [6] 0.018 | [7] 0.073 | [8] -0.048 | [9] 0.059 | [10] 0.019 | [11] 0.074 | [12] 0.09 | [14] -0.202 | [15] 0.115 | [16] 0.024 | [17] 0.133 | [18] -0.002 | [20] -0.045

TPCN1 isoform 3 (UniProt Q9ULQ1)
inactive: [1] -0.055 | [2] -0.04 | [3] 0.063 | [4] 0.033 | [5] 0.015 | [6] -0.017 | [7] -0.12 | [8] 0.012 | [10] 0.065 | [11] -0.057 | [12] 0.061 | [13] 0.072 | [14] 0.031 | [16] -0.01 | [17] -0.027 | [19] -0.025

TOM1L1 (UniProt O75674)
inactive: [1] -0.026 | [2] 0.015 | [3] 0.014 | [4] 0.073 | [5] 0.03 | [6] -0.013 | [7] 0.017 | [8] 0.023 | [9] -0.03 | [10] 0 | [11] -0.057 | [12] -0.022 | [13] 0.018 | [14] -0.05 | [15] -0.045 | [16] 0.018 | [17] -0.022 | [18] -0.004 | [19] -0.008 | [20] 0.018

TMEM9 (UniProt Q9P0T7)
inactive: [1] -0.016 | [2] 0.033 | [3] 0.008 | [5] 0.058 | [6] 0.058 | [7] 0.035 | [8] 0.018 | [9] -0.072 | [10] -0.005 | [11] -0.02 | [12] 0.022 | [13] -0.102 | [14] -0.01 | [15] 0.051 | [18] -0.088 | [19] 0.042 | [20] -0.034

TOM1 (UniProt O60784)
inactive: [1] -0.049 | [2] -0.018 | [3] -0.018 | [4] -0.037 | [5] 0.022 | [7] 0.031 | [8] -0.043 | [9] 0.058 | [11] 0.023 | [13] 0.149 | [14] -0.074 | [15] 0.007 | [16] -0.01 | [17] -0.099 | [19] -0.01

TOPAZ1 (UniProt Q8N9V7)
inactive: [1] 0.022 | [2] -0.129 | [3] 0.279 | [4] -0.147 | [5] -0.116 | [6] 0.723 | [12] -0.353 | [13] 0.037 | [14] -0.193 | [16] 0.021 | [17] 0.013 | [19] -0.106

TMEM237 isoform 3 (UniProt Q96Q45)
inactive: [1] 0.047 | [2] 0.219 | [5] -0.002 | [6] 0.175 | [7] -0.13 | [8] 0.103 | [9] 0.04 | [10] -0.021 | [11] -0.028 | [12] -0.124 | [14] -0.005 | [15] 0.024 | [18] -0.035 | [19] -0.021 | [20] -0.039

TMEM8A (UniProt Q9HCN3)
inactive: [1] 0.022 | [2] 0.059 | [3] 0.142 | [4] -0.084 | [5] -0.176 | [7] -0.085 | [8] 0.015 | [11] 0.148 | [13] 0.16 | [14] 0.126 | [16] 0.041 | [17] -0.044 | [19] 0.045

TMPPE (UniProt Q6ZT21)
inactive: [1] 0 | [2] 0.031 | [3] -0.004 | [4] 0.049 | [5] 0.049 | [6] 0.001 | [7] -0.051 | [8] 0.058 | [10] 0.024 | [11] -0.026 | [12] -0.07 | [13] 0.01 | [14] 0.049 | [16] 0.014 | [17] -0.112 | [18] -0.004 | [19] -0.042 | [20] 0.049

TNIK (UniProt C9J338)
inactive: [1] 0.151 | [2] 0.064 | [3] 0.028 | [4] 0.171 | [5] -0.011 | [7] -0.51 | [8] 0.341 | [9] 0.033 | [10] -0.026 | [11] -0.155 | [13] -0.211 | [14] -0.014 | [15] 0.306 | [16] -0.012 | [17] 0.005 | [19] 0.076

TNRC6A (UniProt Q8NDV7)
inactive: [1] 0.051 | [2] -0.242 | [3] -0.073 | [4] 0.141 | [5] 0.076 | [7] 0.001 | [8] 0.009 | [9] 0.088 | [10] 0.046 | [11] 0.045 | [13] 0.007 | [14] 0.011 | [15] -0.038 | [16] -0.145 | [17] 0.18 | [18] -0.004 | [19] 0.154 | [20] 0.157

TMX4 (UniProt Q9H1E5)
inactive: [1] 0.072 | [3] 0.047 | [4] 0.022 | [6] 0.015 | [7] -0.05 | [8] -0.025 | [9] 0.012 | [10] -0.005 | [11] 0 | [12] -0.101 | [13] 0.019 | [14] -0.051 | [15] -0.074 | [16] -0.015 | [17] -0.036 | [18] -0.057 | [20] 0.304
